Measured values: patent US20180230398A1, “PERFUME SYSTEMS” (The Procter & Gamble Company, priority 2014, published 2018)
Where a name gives a salt, the structure may show the parent alone.

Test: Character description (odour character) of the PRMs of Table 1
Conditions: odour character in words

With `Cc1ccc(C2C=CCCC2)o1` (racemic) [Molecule 7, 2-(cyclohex-2-en-1-(R,S)-yl)-5-methylfuran] as the molecule, how does the Character description read?
The Character description was “green (chervil), herbal”.

With `CCC(C)(C#N)CCC=C(C)C` (racemic) [Molecule 11, 2-(R,S)-ethyl-2,6-dimethylhept-5-enenitrile] as the molecule, how does the Character description read?
The Character description was “herbal (fennel), fruity”.

For `CCC(C)(CCC=C(C)C)C(C)=O` (racemic) [Molecule 12, 3-(R,S)-ethyl-3,7-dimethyloct-6-en-2-one], which Character description is on record?
Its Character description is “woody, herbal (lavender)”.

Which Character description does the source give for `CCCCC(=O)C(C)(CC)CCC=C(C)C` (racemic) [Molecule 13, 6-(R,S)-ethyl-6,10-dimethylundec-9-en-5-one] here?
The Character description was “herbal, floral”.

Which Character description does the source give for `CC[C@](C)(CCC=C(C)C)[C@@H](C)O` (racemic) [Molecule 14, 3-(R,S)-ethyl-3,7-dimethyloct-6-en-2-(R,S)-ol] here?
Its Character description is “floral (lilac), clean”.

For `CCCC[C@@H](O)[C@](C)(CC)CCC=C(C)C` (racemic) [Molecule 15, 6-(R,S)-ethyl-6,10-dimethylundec-9-en-5-(R,S)-ol], which Character description is on record?
The Character description was “floral, herbal,”.

For `CCC(C)(C#N)CC=C(C)C` (racemic) [Molecule 16, 2-(R,S)-ethyl-2,5-dimethylhex-4-enenitrile], which Character description is on record?
Its Character description is “herbal, minty (carway), spicy (celery)”.

For `CCC(C)(CC=C(C)C)C(C)=O` (racemic) [Molecule 17, 3-(R,S)-ethyl-3,6-dimethylhept-5-en-2-one], which Character description is on record?
The Character description was “citrus, fruity, fresh”.

With `CCC(C)(CC=C(C)C)C(C)O` (racemic) [Molecule 18, 3-(R,S)-ethyl-3,6-dimethylhept-5-en-2-ol] as the molecule, how does the Character description read?
The Character description was “floral herbal (lilac, pine), clean”.

For `CCCCC(=O)C(C)(CC)CC=C(C)C` (racemic) [Molecule 19, 6-(R,S)-ethyl-6,9-dimethyldec-8-en-5-one], which Character description is on record?
The Character description was “woody, leathery”.

Which Character description does the source give for `CCCCC(O)C(C)(CC)CC=C(C)C` (racemic) [Molecule 20, 6-(R,S)-ethyl-6,9-dimethyldec-8-en-5-ol] here?
The Character description was “floral (lily of the valley)”.

Which Character description does the source give for `CC1=C(C)CC(C#N)CC1` (racemic) [Molecule 21, (R,S)-3,4-dimethylcyclohex-3-enecarbonitrile] here?
Its Character description is “almond”.

Which Character description does the source give for `CC1=C(C)CC(C)(C#N)CC1` (racemic) [Molecule 22, 1-(R,S)-,3,4-trimethylcyclohex-3-enecarbonitrile] here?
Its Character description is “herbal, spicy (nutty)”.

Which Character description does the source give for `CC(=O)C1(C)CCC(C)=C(C)C1` (racemic) [Molecule 23, 1-(1-(R,S),3,4-trimethylcyclohex-3-en-1-yl)ethanone] here?
The Character description was “fresh, citrus, herbal, woody”.

With `CC(C)=CCC1(C#N)CCC(C)=C(C)C1` (racemic) [Molecule 24, 3,4-dimethyl-1-(R,S)-(3-methylbut-2-en-1-yl)cyclohex-3-enecarbonitrile] as the molecule, how does the Character description read?
Its Character description is “mussel, terpenic”.

Which Character description does the source give for `CC1=C(C)C[C@](C)([C@@H](C)O)CC1` (racemic) [Molecule 25, 1-(R,S)-(1-(R,S),3,4-trimethyl-cyclohex-3-en-1-yl)ethanol] here?
The Character description was “clean, pine, floral (lily of the valley)”.

Which Character description does the source give for `CC(=O)C1(CC=C(C)C)CCC(C)=C(C)C1` (racemic) [Molecule 26, 1-(3,4-dimethyl-1-(R,S)-(3-methylbut-2-en-1-yl)cyclohex-3-en-1-yl)ethanone] here?
The Character description was “clean, floral, woody (pine), green”.

For `CCCCC(=O)C1(C)CCC(C)=C(C)C1` (racemic) [Molecule 27, 1-(1-(R,S),3,4-trimethylcyclohex-3-en-1-yl)pentan-1-one], which Character description is on record?
The Character description was “woody, spicy”.

With `CC(C)=CCCC1(C#N)CCC(C)=C(C)C1` (racemic) [Molecule 28, 3,4-dimethyl-1-(R,S)-(4-methylpent-3-en-1-yl)cyclohex-3-enecarbonitrile] as the molecule, how does the Character description read?
The Character description was “green”.

Which Character description does the source give for `CCC1(C#N)CCC(C)=C(C)C1` (racemic) [Molecule 40, 1-(R,S)-ethyl-3,4-dimethyl-cyclohex-3-enecarbonitrile] here?
Its Character description is “spicy”.

For `CCC1(C(C)=O)CCC(C)=C(C)C1` (racemic) [Molecule 41, 1-(1-(R,S)-ethyl-3,4-dimethyl-cyclohex-3-en-1-yl)ethanone], which Character description is on record?
The Character description was “floral, pine needles, fresh (lime)”.

Which Character description does the source give for `CCCCC(=O)C1(CC)CCC(C)=C(C)C1` (racemic) [Molecule 42, 1-(1-(R,S)-ethyl-3,4-dimethyl-cyclohex-3-en-1-yl)pentan-1-one] here?
The Character description was “chewing gum (fruity)”.

For `CCCCC(O)C1(C)CCC(C)=C(C)C1` (racemic) [Molecule 43, 1-(1-(R,S)-methyl-3,4-dimethyl-cyclohex-3-en-1-yl)pentan-1-ol], which Character description is on record?
Its Character description is “fruity, herbal, chamomile”.

For `C=CCC1(C#N)CCC(C)=C(C)C1` (racemic) [Molecule 44, 1-(R,S)allyl-3,4-dimethylcyclohex-3-enecarbonitrile], which Character description is on record?
The Character description was “green, violet”.

With `CCCC1(C#N)CCC(C)=C(C)C1` (racemic) [Molecule 45, 3,4-dimethyl-1-(R,S)-propylcyclohex-3-enecarbonitnle] as the molecule, how does the Character description read?
Its Character description is “citrus, herbal”.

For `C=CCC1(C(C)=O)CCC(C)=C(C)C1` (racemic) [Molecule 46, 1-(1-(R,S)-allyl-3,4-dimethyl-cyclohex-3-en-1-yl)ethanone], which Character description is on record?
The Character description was “herbal (lavender), citrus, sweet”.

For `C=CCC1(C(C)O)CCC(C)=C(C)C1` (racemic) [Molecule 47, 1-(1-(R,S)-allyl-3,4-dimethyl-cyclohex-3-en-1-yl)ethanol], which Character description is on record?
The Character description was “woody”.

For `CCCC1(C(C)=O)CCC(C)=C(C)C1` (racemic) [Molecule 48, 1-(3,4-dimethyl-1-(R,S)-propyl-cyclohex-3-en-1-yl)ethanone], which Character description is on record?
The Character description was “fresh, citrus, floral, bergamot”.

Which Character description does the source give for `CCCC1(C(C)O)CCC(C)=C(C)C1` (racemic) [Molecule 49, 1-(3,4-dimethyl-1-(R,S)propyl-cyclohex-3-en-1-yl)ethanol] here?
The Character description was “hay, carrotseed”.

With `CCCC1(C=O)CCC(C)=C(C)C1` (racemic) [Molecule 50, 3,4-dimethyl-1-(R,S)-propyl-cyclohex-3-enecarbaldehyde] as the molecule, how does the Character description read?
Its Character description is “citrus, aldehydic”.

For `C=CCC1(C=O)CCC(C)=C(C)C1` (racemic) [Molecule 51, 1-(R,S)-allyl-3,4-dimethyl-cyclohex-3-enecarbaldehyde], which Character description is on record?
Its Character description is “mint, herbal, tea, violet”.

Which Character description does the source give for `CC(=O)C1(CCC=C(C)C)CCC(C)=C(C)C1` (racemic) [Molecule 52, 1-(R,S)-(3,4-dimethyl-1-(4-methylpent-3-enyl)cyclohex-3-enyl)ethanone] here?
The Character description was “floral, green”.

With `CC1=C(C)CC(C#N)(C(C)C)CC1` (racemic) [Molecule 53, 1-(R,S)-isopropyl-3,4-dimethylcyclohex-3-enecarbonitrile] as the molecule, how does the Character description read?
Its Character description is “spicy, clean linen”.

Which Character description does the source give for `CC1=C(C)CC(C)(C(=O)CC(C)C)CC1` (racemic) [Molecule 54, 3-methyl-1-(1-(R,S),3,4-trimethylcyclohex-3-enyl)butan-1-one] here?
Its Character description is “green, unripe fruit, malt (beer)”.

With `CC(C)=CCC1(C=O)CCC(C)=C(C)C1` (racemic) [Molecule 55, 3,4-dimethyl-1-(R,S)-(3-methylbut-2-enyl)cyclohex-3-enecarbaldehyde] as the molecule, how does the Character description read?
The Character description was “floral (geranium)”.

Which Character description does the source give for `CC(C)=CCC1(C(C)O)CCC(C)=C(C)C1` (racemic) [Molecule 56, 1-(R,S)-(3,4-dimethyl-1-(3-methylbut-2-enyl)cyclohex-3-enyl)ethanol] here?
The Character description was “herbal, citrus”.

Which Character description does the source give for `CCC(=O)C1(C)CCC(C)=C(C)C1` (racemic) [Molecule 57, 1-(1-(R,S),3,4-trimethylcyclohex-3-enyl)propan-1-one] here?
Its Character description is “citrus, floral (fresia), herbal”.

For `CCC1(C(=O)CC(C)C)CCC(C)=C(C)C1` (racemic) [Molecule 58, 1-(1-(R,S)-ethyl-3,4-dimethyl-cyclohex-3-enyl)-3-methylbutan-1-one], which Character description is on record?
The Character description was “fruity, floral, herbal”.

With `CCC(=O)C1(CC)CCC(C)=C(C)C1` (racemic) [Molecule 59, 1-(1-(R,S)-ethyl-3,4-dimethyl-cyclohex-3-enyl)propan-1-one] as the molecule, how does the Character description read?
Its Character description is “herbal (coriander)”.

Which Character description does the source give for `C=CCC(C)(C#N)CCC=C(C)C` (racemic) [Molecule 60, 2-(R,S)-allyl-2,6-dimethylhept-5-enenitrile] here?
Its Character description is “celery, mussels, sea”.

Which Character description does the source give for `CC(C)=CCCC1(C)COC(C)(C)CO1` (racemic) [Molecule 61, 2,2,5-trimethyl-5-(R,S)-(4-methylpent-3-en-1-yl)-1,3-dioxane] here?
The Character description was “nutty, creamy”.

With `CC(C)CCC(C)(C)C(C)O` (racemic) [Molecule 63, 3,3,6-trimethylheptan-2-(R,S)-ol] as the molecule, how does the Character description read?
The Character description was “herbal (lilac), citrus”.

With `CCCOC(=O)C1CCC(C)=C(C)C1` (racemic) [Molecule 64, (R,S)-propyl 3,4-dimethyl-cyclohex-3-enecarboxylate] as the molecule, how does the Character description read?
Its Character description is “white floral”.

With `CCCCOC(=O)C1CCC(C)=C(C)C1` (racemic) [Molecule 66, (R,S)-butyl 3,4-dimethylcyclohex-3-enecarboxylate] as the molecule, how does the Character description read?
Its Character description is “fruity, floral”.

With `CC(=O)OCC1CCC(C)=C(C)C1` (racemic) [Molecule 72, (R,S)-(3,4-dimethylcyclohex-3-enyl)methyl acetate] as the molecule, how does the Character description read?
Its Character description is “fruity (pear, strawberry), chewing gum”.

For `CC(=O)OCC1(C)CCC(C)=C(C)C1` (racemic) [Molecule 73, (1-(R,S),3,4-trimethylcyclohex-3-enyl)methyl acetate], which Character description is on record?
The Character description was “spicy, acidic”.

With `CC1=C(C)CC(C)(COC=O)CC1` (racemic) [Molecule 74, (1-(R,S),3,4-trimethylcyclohex-3-enyl)methyl formate] as the molecule, how does the Character description read?
The Character description was “herbal”.

For `CC1=C(C)CC(COC=O)CC1` (racemic) [Molecule 75, (R,S)-(3,4-dimethylcyclohex-3-enyl)methyl formate], which Character description is on record?
The Character description was “aldehydic, fresh (mimosa)”.

Which Character description does the source give for `CC(C)C1(C#N)CC=CCC1` (racemic) [Molecule 82, 1-(R,S)-isopropylcyclohex-3-enecarbonitrile] here?
Its Character description is “spicy”.

Which Character description does the source give for `COC(=O)C1C(=C(C)C)CCC1C` (racemic) [Molecule 83, methyl 2-(R,S)-methyl-5(propan-2-ylidene)-cyclopentane-carboxylate] here?
Its Character description is “fresh, peppermint”.
